This passage reports binding results from article PMC9200754.

Amino acid sequences for entries named in this document (tags omitted). A change or cut given only in a name is not applied to a line headed by its entry. Residues count along the entry.
UniProt P19838: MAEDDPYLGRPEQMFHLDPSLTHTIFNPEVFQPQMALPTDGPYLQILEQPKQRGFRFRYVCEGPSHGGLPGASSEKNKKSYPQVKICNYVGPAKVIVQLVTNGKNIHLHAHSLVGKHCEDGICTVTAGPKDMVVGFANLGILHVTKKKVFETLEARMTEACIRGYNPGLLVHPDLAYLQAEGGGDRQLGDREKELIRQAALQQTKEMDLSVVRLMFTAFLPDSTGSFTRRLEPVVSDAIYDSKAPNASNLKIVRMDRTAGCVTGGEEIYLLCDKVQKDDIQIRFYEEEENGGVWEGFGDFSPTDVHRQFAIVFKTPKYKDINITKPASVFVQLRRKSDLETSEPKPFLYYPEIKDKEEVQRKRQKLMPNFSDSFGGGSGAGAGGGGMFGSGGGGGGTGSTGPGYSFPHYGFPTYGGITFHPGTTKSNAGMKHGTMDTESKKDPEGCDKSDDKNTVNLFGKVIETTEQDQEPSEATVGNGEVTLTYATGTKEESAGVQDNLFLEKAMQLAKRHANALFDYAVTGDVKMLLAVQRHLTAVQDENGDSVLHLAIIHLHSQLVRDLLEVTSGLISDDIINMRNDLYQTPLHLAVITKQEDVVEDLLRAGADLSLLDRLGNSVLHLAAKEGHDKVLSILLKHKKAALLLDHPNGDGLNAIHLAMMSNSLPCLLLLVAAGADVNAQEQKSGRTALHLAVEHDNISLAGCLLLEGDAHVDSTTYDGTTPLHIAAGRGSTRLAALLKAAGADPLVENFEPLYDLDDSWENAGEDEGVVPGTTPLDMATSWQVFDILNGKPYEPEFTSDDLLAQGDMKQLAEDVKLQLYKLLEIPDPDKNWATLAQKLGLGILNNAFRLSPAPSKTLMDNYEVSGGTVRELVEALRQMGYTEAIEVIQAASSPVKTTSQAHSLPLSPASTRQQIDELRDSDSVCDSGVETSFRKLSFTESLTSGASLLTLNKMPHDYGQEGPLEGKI
Nluc-p50: residues 1-433 of P19838
UniProt Q96RR4: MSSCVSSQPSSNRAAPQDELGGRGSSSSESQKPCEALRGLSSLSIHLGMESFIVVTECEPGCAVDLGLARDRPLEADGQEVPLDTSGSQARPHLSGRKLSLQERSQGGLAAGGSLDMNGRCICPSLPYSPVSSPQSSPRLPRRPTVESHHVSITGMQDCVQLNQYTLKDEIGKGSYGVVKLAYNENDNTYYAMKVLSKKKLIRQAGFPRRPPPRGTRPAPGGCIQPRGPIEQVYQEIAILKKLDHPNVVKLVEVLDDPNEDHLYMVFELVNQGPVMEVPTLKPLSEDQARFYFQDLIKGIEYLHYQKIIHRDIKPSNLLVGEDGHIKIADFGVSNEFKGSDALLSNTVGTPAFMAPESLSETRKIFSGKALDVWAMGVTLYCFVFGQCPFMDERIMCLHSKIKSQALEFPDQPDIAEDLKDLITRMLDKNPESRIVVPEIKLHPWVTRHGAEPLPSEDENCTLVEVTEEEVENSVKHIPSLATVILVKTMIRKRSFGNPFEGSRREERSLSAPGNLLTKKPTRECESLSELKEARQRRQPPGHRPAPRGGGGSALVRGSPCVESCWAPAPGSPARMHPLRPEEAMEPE
UniProt P06241: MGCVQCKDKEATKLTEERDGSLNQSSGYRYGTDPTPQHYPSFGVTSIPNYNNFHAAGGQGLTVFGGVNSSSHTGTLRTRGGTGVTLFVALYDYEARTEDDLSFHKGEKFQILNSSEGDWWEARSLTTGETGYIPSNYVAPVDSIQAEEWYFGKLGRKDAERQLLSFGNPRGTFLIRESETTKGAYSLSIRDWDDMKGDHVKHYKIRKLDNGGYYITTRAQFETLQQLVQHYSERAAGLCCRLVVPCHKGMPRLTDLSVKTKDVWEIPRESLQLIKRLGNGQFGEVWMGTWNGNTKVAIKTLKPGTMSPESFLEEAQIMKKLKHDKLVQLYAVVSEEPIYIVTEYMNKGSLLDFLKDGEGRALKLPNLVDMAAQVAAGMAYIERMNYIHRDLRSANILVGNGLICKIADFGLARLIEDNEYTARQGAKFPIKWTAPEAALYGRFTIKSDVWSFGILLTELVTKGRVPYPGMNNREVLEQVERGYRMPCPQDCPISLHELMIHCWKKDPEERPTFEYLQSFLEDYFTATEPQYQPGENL
UniProt P52630: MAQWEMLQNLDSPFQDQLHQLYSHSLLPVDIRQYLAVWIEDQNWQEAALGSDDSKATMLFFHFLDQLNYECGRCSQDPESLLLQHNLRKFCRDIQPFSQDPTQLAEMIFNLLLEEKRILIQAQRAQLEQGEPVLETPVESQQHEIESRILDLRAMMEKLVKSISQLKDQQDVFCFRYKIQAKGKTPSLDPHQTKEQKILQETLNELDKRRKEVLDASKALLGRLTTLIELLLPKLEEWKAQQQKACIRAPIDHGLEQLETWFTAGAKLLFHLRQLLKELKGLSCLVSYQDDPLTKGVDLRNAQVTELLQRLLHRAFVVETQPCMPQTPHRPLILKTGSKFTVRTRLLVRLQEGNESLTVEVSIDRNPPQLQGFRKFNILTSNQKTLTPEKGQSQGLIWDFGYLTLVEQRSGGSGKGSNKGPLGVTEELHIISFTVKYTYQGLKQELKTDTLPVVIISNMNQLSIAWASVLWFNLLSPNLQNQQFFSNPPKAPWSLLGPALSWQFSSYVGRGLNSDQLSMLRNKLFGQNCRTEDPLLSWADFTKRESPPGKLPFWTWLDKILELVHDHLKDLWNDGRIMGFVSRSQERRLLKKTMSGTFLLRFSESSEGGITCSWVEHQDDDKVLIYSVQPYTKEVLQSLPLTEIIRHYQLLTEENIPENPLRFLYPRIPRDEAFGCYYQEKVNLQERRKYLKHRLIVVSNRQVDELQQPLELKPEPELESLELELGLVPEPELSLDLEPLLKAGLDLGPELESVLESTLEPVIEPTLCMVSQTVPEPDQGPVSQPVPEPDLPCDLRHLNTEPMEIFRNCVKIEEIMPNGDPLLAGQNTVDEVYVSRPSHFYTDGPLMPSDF
UniProt Q04206: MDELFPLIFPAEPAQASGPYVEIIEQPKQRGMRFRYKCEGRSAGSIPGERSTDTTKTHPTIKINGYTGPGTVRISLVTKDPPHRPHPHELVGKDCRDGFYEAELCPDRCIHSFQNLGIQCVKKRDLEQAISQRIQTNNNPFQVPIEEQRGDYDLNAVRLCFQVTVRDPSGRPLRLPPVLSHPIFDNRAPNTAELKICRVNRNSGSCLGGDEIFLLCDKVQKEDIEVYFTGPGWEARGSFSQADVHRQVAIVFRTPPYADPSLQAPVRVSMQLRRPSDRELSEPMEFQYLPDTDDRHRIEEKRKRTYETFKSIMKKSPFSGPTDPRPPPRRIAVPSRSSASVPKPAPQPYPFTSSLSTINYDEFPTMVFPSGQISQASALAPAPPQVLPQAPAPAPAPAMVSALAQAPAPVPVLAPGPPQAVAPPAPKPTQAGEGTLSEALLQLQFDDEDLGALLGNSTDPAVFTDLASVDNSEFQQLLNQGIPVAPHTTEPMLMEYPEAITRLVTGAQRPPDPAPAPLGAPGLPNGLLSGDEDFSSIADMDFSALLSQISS
UniProt P42224: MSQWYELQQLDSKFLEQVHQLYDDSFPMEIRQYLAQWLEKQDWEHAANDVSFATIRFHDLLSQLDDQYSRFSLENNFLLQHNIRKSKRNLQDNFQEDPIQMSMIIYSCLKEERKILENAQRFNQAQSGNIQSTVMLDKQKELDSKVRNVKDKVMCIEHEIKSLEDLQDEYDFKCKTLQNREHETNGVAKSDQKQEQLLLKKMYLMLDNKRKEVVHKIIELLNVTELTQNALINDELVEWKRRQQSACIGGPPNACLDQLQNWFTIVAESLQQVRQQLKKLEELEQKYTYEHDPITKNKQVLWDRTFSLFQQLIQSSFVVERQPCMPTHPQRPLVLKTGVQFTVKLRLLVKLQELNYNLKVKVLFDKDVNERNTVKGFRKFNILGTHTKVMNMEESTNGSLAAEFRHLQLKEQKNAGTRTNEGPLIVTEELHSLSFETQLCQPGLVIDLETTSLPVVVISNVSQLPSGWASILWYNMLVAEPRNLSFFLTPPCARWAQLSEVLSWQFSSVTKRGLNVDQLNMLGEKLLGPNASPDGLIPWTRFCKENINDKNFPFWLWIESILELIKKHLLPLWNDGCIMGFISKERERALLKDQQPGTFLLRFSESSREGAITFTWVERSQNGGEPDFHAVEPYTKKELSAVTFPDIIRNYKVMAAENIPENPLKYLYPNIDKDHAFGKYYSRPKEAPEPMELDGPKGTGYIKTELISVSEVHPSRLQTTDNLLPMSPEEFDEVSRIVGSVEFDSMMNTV

No constants are given. Whether binding was seen depends on the method and setting. In cells and extracts the contact can be indirect. Some entries that bind do so weakly or less than the wild type.

For this assay, the target named is Nluc-p50 (human) (UniProt P19838). In words: FRET or BRET. (In general: In BRET a luciferase serves as donor, and the signal depends on an acceptor being close.)

Turning to YFP-CAMKK2 (from UniProt Q96RR4 1-588), the binding entry was “no binding”.

As to YFP-FYN (from UniProt P06241 1-537), the binding entry is “no binding”.

For YFP-STAT2 (from UniProt P52630 1-851), the binding entry is recorded as “no binding”.

As for YFP-p65 (from UniProt Q04206 1-551), the binding entry was “binds”.

Consider YFP-STAT1 (from UniProt P42224 1-750), for which the binding result was “no binding”.

As to YFP-p105 (from UniProt P19838 1-968), the binding result is “binds”.
